# In all, about 410,000 compounds went through this assay and about 18,000 (4.4%) were called active. The shares of active, inactive and inconclusive entries below differ from those in the screen. Cut-off read from the data, not from the text of the source: active = activity change below about -60%; inconclusive = no clear call, values can overlap the other calls; inactive = above about -39%.
# Experiment: qHTS Assay for inhibitors of the human cytomegalovirus (HCMV)
# Conditions: HFF cells, HCMV-luciferase reporter, 72 h; at 57.5 µM; hits give low values
# Procedure, shortened: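 Two-dose cell screen: HFF monolayers treated with compounds and infected with luciferase-expressing HCMV at 1 PFU/cell, 72 h at 37C, then lysed for luciferase measurement.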
# % is set by controls: 0 for no effect and ±100 for the full control effect.
row,SMILES,"activity change, negative = inhibition"
1,COc1ccccc1C1C=C(c2ccccc2)Nc2nnnn21 (stereo unspecified),inconclusive: -54%
2,COc1cccc(S(=O)(=O)Nc2ccc3c(c2)C(=O)N(C)C[C@H](OC)[C@H](C)CN[C@@H](C)CO3)c1,inactive: 55.7%
3,CCCCN(CC)CCNC(=O)Cn1c(=O)c2cccn2c2cccnc21,inconclusive: -53.3%
4,CCOc1ccc(C(=O)Nc2ccncc2)cc1,inconclusive: -57.6%
5,Cc1ccccc1N(CC(=O)NCc1ccc2c(c1)OCO2)C(=O)C1CSC(=O)C1 (stereo unspecified),inconclusive: -44.9%
6,COc1ccc2c(c1)c(C(=O)N/N=C/c1ccc(Cl)cc1)c(C)n2C,inconclusive: -44.3%
7,CN(C)c1nc(N)nc(Cn2nnc(-c3ccc(C(F)(F)F)cc3)n2)n1,inconclusive: -47.3%
8,COCCCNC(=O)C[C@@H]1C[C@@]2(C(=O)OC)CCCCC=C2N(CCC2=CCCCC2)C1=O,inactive: -9.69%
9,Cc1ncc(CN2CCC(C(=O)Nc3ccc(Oc4cccnc4)cc3)CC2)cn1,inactive: -30.4%
10,COc1ccc(C(=O)Nc2ccc(NC(=O)c3cccs3)cc2)cc1Cl,active: -75.9%
11,COc1ccc(S(=O)(=O)N2CCCCC2)cc1NC(=O)c1cncc(Br)c1,inconclusive: -47%
12,O=C(Nc1nc2cc3c(cc2s1)OCO3)C1=COCCO1,active: -70.8%
13,O=C(Cn1cnc2c(cnn2-c2ccc(Cl)cc2)c1=O)N1CCN(c2ccccc2)CC1,inconclusive: -54.7%
14,Cc1ccc(S(=O)(=O)N2CCN(c3cnn(C)c(=O)c3Cl)CC2)cc1,inconclusive: -47.2%
15,Fc1ccc(CN2C3=NCCN3c3ccccc32)cc1,inconclusive: -43.4%
16,CC1Cc2ccccc2N1C(=O)c1ccc(N2CCCCC2)c([N+](=O)[O-])c1 (stereo unspecified),inactive: -35.1%
17,CN1CCN(Cc2cc(Cl)c3cccnc3c2OC(=O)c2cccs2)CC1,inconclusive: -52.8%
18,COc1ccc(N(C)S(=O)(=O)c2cccc(C(=O)OCC(=O)c3c(N)n(C)c(=O)n(C)c3=O)c2)cc1,inconclusive: -47.7%
19,O=C(CN1CCN(c2ccccc2O)CC1)NC(=O)NCc1ccco1,inconclusive: -52.3%
20,COc1ccc(-c2nc(CCNC(=O)c3cccs3)cs2)cc1OC,active: -84.2%
21,CCC(C)(C)NC(=O)C1CCN(c2nc(OC)nc(OC)n2)CC1,inactive: -3.41%
22,CC(=O)Nc1ccc(C2CC(c3ccc(Cl)cc3)=NN2c2ccccc2)cc1 (stereo unspecified),inconclusive: -56%

# Exported tab-delimited: 6 of the compounds above.
row	SMILES	activity change, negative = inhibition
10	COc1ccc(C(=O)Nc2ccc(NC(=O)c3cccs3)cc2)cc1Cl	active: -75.9%
11	COc1ccc(S(=O)(=O)N2CCCCC2)cc1NC(=O)c1cncc(Br)c1	inconclusive: -47%
12	O=C(Nc1nc2cc3c(cc2s1)OCO3)C1=COCCO1	active: -70.8%
13	O=C(Cn1cnc2c(cnn2-c2ccc(Cl)cc2)c1=O)N1CCN(c2ccccc2)CC1	inconclusive: -54.7%
14	Cc1ccc(S(=O)(=O)N2CCN(c3cnn(C)c(=O)c3Cl)CC2)cc1	inconclusive: -47.2%
15	Fc1ccc(CN2C3=NCCN3c3ccccc32)cc1	inconclusive: -43.4%

# (next part)

row,SMILES,"activity change, negative = inhibition"
1,CCC(=NC(C)c1ccccc1)c1c(O)n(C)c(=O)n(C)c1=O (stereo unspecified),inconclusive: -44.9%
2,O=C1CC(c2ccc(F)cc2)Sc2nc(-c3ccccc3)c(-c3ccccc3)n21 (stereo unspecified),inconclusive: -49.1%
3,COCCc1nn2c(=O)cc(COC(=O)c3cccs3)nc2s1,inconclusive: -48.7%
4,CCc1cccc(C)c1NC(=O)CN1C(=O)c2c(c3ccccc3n2C)C1c1ccc(OC)cc1 (stereo unspecified),inactive: 0%
5,O=C1C(Cl)=C(N2CCOCC2)C(=O)N1c1cccc(Cl)c1,inactive: -0.981%
6,COc1ccccc1NC(=O)c1ccccc1NC(=O)c1ccccc1,inconclusive: -58%
7,CCC(C)[C@H](NC(=O)NCc1ccccc1Cl)C(=O)O (stereo partly specified),inactive: 22%
8,CCOc1ccccc1C(=O)NC1CCN(CC(=O)Nc2cc(OC)ccc2OC)CC1,inconclusive: -46.9%
9,Cc1ccc(S(=O)(=O)Oc2ccccc2/C=N/O)cc1,inconclusive: -53.2%
10,COc1ccc(CNC(=O)C(=O)NCCC2CCCCN2S(=O)(=O)c2ccccc2)cc1 (stereo unspecified),inactive: -36.2%
11,Cc1cc(C(=O)N/N=C/c2ccccn2)n[nH]1,inactive: 28.9%
12,COc1ccccc1S(=O)(=O)N1CCN(S(=O)(=O)c2cccs2)CC1,inconclusive: -42.3%
13,Cc1ccc(NCc2cccn2-c2nnc(N3CCC(C(=O)NCCc4ccccc4)CC3)s2)cc1,inactive: -39%
14,CCOC(=O)c1c(CSc2ccccc2)n(C)c2ccc(O)c(CN3CCN(C)CC3)c12,inconclusive: -53.9%
15,CCc1ccccc1NC(=O)c1cccc(Oc2ccc([N+](=O)[O-])cc2Cl)c1,inconclusive: -56.7%
16,O=S(=O)(Nc1cccc(-c2ccc(N3CCCCCC3)nn2)c1)c1ccccc1Cl,active: -75.7%
17,COc1ccc(S(=O)(=O)Nc2ccc3c(c2)CCC3)cc1,inconclusive: -58.7%
18,Nc1nc(C23CC4CC(CC(Cl)(C4)C2)C3)cs1,inconclusive: -43.5%
19,CCN(CC)S(=O)(=O)c1ccc(N2CCOCC2)c(NC(=O)COc2ccccc2C)c1,inconclusive: -45.8%
20,COc1ccc(-c2nnc(NC(=O)C(C)C)s2)c(OC)c1,inactive: 18.8%
21,COc1cc(/C=C2/NC(=O)NC2=O)cc(Br)c1OCc1ccccc1,inconclusive: -41.8%
22,Cc1ccc(-n2c(C)cc(C(=O)CSc3nnc4ccccn34)c2C)cc1,active: -86.1%

row,SMILES,"activity change, negative = inhibition"
1,O=C(CSc1nc2ncc(Cl)cc2[nH]1)Nc1cccc(F)c1,inconclusive: -41.5%
2,C[C@H](CO)N1C[C@H](C)[C@@H](CN(C)S(=O)(=O)c2cccs2)Oc2ccc(NC(=O)CCC(F)(F)F)cc2C1=O,inconclusive: -44.2%
3,Cc1cc(C)n(CC(C)NCc2c(C(=O)N3CCOCC3)nc3c(C)cccn23)n1 (stereo unspecified),inactive: 16%
4,Nc1nc(SCC(=O)Nc2ccc([N+](=O)[O-])cc2)n[nH]1,inconclusive: -43.1%
5,Cc1ccc(S(=O)(=O)N2CCN(S(=O)(=O)c3ccccc3)C2)cc1,inactive: 2.34%
6,FC(F)(F)Oc1ccc(Nc2nc(N3CCOCC3)nc(N3CCOCC3)n2)cc1,inactive: -33.6%
7,Oc1c(Cl)cc(CN2CCOCC2)c2cccnc12,active: -99.2%
8,CCCS(=O)(=O)c1c(S(=O)(=O)CCC)c2c(C(N)=O)cccn2c1C(=O)c1ccc(F)cc1,inactive: -35.8%
9,N#CC1=C(N)Nc2ncnn2C1c1ccc([N+](=O)[O-])cc1 (stereo unspecified),inconclusive: -49%
10,COc1ccc(C(=O)Nc2ccc(S(=O)(=O)N3CCCCC3)cc2)cc1,inconclusive: -47.9%
11,Cn1c(SCc2ccccc2F)nc2ccccc2c1=O,inconclusive: -59.7%
12,OCc1cnc(SCc2cccc(F)c2)n1Cc1ccc(F)cc1,active: -71%
13,C/C(=N\N1C(=O)c2ccccc2C1=O)c1cccc([N+](=O)[O-])c1,inconclusive: -42.4%
14,CCCCCCC(=O)N1C/C=C\C(c2ccc(OC)cc2)N(Cc2ccc(F)cc2)C(=O)[C@H]1Cc1ccccc1 (stereo partly specified),active: -93.2%
15,CCOC(=O)c1sc(NC(=O)CSc2nc(-c3ccco3)cc(C(F)(F)F)n2)c(C(=O)OCC)c1C,inconclusive: -40.6%
16,NC(=Nc1ccccc1)Nc1ccccc1,inactive: -20%
17,COc1ccc(CNC(=O)Cn2nc(C(F)(F)F)c(Br)c2C)cc1,inactive: -5.98%
18,Cc1c(C(=O)N2CCCC2)oc2c1-c1nn(CC(=O)NCc3cccc(F)c3)cc1CC2,inconclusive: -55.6%
19,COc1ccc(C#Cc2ccc3c(c2)O[C@H](CN(C)C(C)=O)[C@H](C)CN([C@@H](C)CO)S3(=O)=O)cc1,inconclusive: -46.1%
20,COCc1c(C(=O)OCC(=O)NCCN2C(=O)CSC2=O)oc2ccccc12,inconclusive: -42.4%
21,CCCCc1ccc(C(=O)Nc2ccc3nc(N(CC)CC)cc(C)c3c2)cc1,active: -60.8%
22,Cc1nc(NCCC(C)C)c2nnn(Cc3ccccc3)c2n1,inactive: -2.74%

row,SMILES,"activity change, negative = inhibition"
1,COc1cc(OC)c(NC(=O)C2=C(C)C(=O)OC23CCCCC3)cc1Cl,inconclusive: -56.6%
2,CCc1ccc(S(=O)(=O)NCc2cn3cccc(C)c3n2)s1,inconclusive: -53.9%
3,CCc1ccc(C(=O)c2cnc3ccc(C)cc3c2S(=O)(=O)c2ccc(OC)cc2)cc1,inconclusive: -46.5%
4,CCOc1cc(/C=C(\C#N)C(N)=O)ccc1OS(=O)(=O)c1ccccc1,inconclusive: -47.7%
5,Clc1ccc2c(c1)C(c1cccs1)=NNC(c1cccnc1)=N2,inconclusive: -46.9%
6,CC(C)(C)c1cc(C(=O)CCN2CCOCC2)cc(C(C)(C)C)c1O,active: -76.7%
7,Cc1ccc(C)c(N)c1,inactive: 10.2%
8,O=C1CCCN2N=C(SCC(=O)Nc3cccc(F)c3)SC2=N1,inconclusive: -50.1%
9,Cc1ccc(-c2[nH]ncc2/C=C(\C#N)C(=O)NC2CCCCC2)cc1,inactive: -19.2%
10,COc1ccc(/C=C(\CC(=O)O)c2nc3ccccc3s2)cc1O,inconclusive: -42.8%
11,Cc1ccc(C(=O)c2cc([N+](=O)[O-])ccc2N2CCN(C)CC2)cc1,inconclusive: -56.5%
12,COc1cccc(-n2c(O)c(C=NCc3ccc4c(c3)OCO4)c(=O)[nH]c2=O)c1,active: -105%
13,Cc1ccc(C(=O)Nc2nc(C)c(C)s2)o1,inactive: 36%
14,Cc1cc(OCC(=O)N(C(C)C)C(C)C)ccc1Cl,inconclusive: -59.1%
15,CSc1nn(Cc2ccc(F)cc2)c(N)c1S(=O)(=O)c1ccc(Cl)cc1,inconclusive: -44%
16,Cc1cc(C)c2cc(C(=O)Nc3ccccc3)[nH]c2c1,inconclusive: -41.3%
17,COc1cc2c(cc1OC)C1C(=O)c3ccc4c(c3OC1CO2)CC(C(C)C)O4 (stereo unspecified),active: -96.1%
18,COc1ccc(C(=O)Nc2ccc(N3CCN(C(=O)c4ccccc4C)CC3)cc2)cc1,active: -82.1%
19,COc1ccccc1-c1sc2cc3c(cc2c1C#Cc1cncn1C)OCO3,inactive: 25.3%
20,Cc1cccc(-n2c(SCC(=O)Nc3ccccc3C)nc3c(oc4ccccc43)c2=O)c1,inconclusive: -40.8%
